This experiment addresses feline FcRn (soluble portion of large subunit p51 isoform X1 with C-terminal 6xHis-tag, co-expressed with feline beta2-microglobulin with C-terminal STREP-TAG II) (feline) (UniProt Q5MGS7). As to the kind of experiment: SPR, pH 5.9.

Chains of the proteins cited; added tags and fusions are not shown. Lines headed by an entry give the natural chain unless they say otherwise; changes in a name come on top.
UniProt Q5MGS7: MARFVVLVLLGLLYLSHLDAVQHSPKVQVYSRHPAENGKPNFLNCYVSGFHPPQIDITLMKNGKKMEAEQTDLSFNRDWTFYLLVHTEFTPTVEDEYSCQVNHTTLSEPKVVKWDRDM

Numbering of substitutions follows the chain as printed. Numbers in names are those of the source. Results are given in words; binding and its absence hold for the method and conditions named. Some results given as binding are weak or reduced against the parent protein; the word gives no strength. Tags and fused reporters may be left off the sequences shown.

The text below walks through data of patent US20240209062A1 (INVETX, published 2024).

B1: IgG with feline IgG1a Fc variant S252M (antibody)
heavy: DVQLVESGGDLVKPGGSLRLTCVASGLSLTSDSMSWVRQAPGKGLQWVSTLWSNRGTYYTDSVKGRFTISKDNAENTLYLQMNNLKTEDTATYYCASIYYYEADYLHWYFDFWGQGALVTVSSASTTAPSVFPLAPSCGTTSGATVALACLVLGYFPEPVTVSWNSGALTSGVHTFPAVLQASGLYSLSSMVTVPSSRWLSDTFTCNVAHPPSNTKVDKTVRKTDHPPGPKPCDCPKCPPPEAAGGPSIFIFPPKPKDTLMISRTPEVTCLVVDLGPDDSDVQITWFVDNTQVYTAKTSPREEQFNSTYRVVSVLPILHQDWLKGKEFKCKVNSKSLPSPIERTISKAKGQPHEPQVYVLPPAQEELSRNKVSVTCLIKSFHPPDIAVEWEITGQPEPENNYRTTPPQLDSDGTYFVYSKLSVDRSHWQRGNTYTCSVSHEALHSHHTQKSLTQSPG
light: EIQMTQSPTSLSASVGDRVTITCRASEGIANNLSWYQQTPGKAPKLLIYATSNLHSGVPSRFSGSGSGTDFTLTISSLQPEDFATYYCQQGFKWPLTFGGGTKLEITRSDAQPSVFLFQPSLDELHTGSASIVCILNDFYPKEVNVKWKVDGVVQNKGIQESTTEQNSKDSTYSLSSTLTMSSTEYQSHEKFSCEVTHKSLASTLVKSFNRSECQRE
notes: IgG1a constant domain with MALA mutations (M234A, L244A as printed); variable domains from WO 2023/97275
Take B1: the binding result is “binds”.

B2: IgG with feline IgG1a Fc variant S252Y, R301Y (antibody)
heavy: B1 heavy with M261Y, R310Y
light: B1 light
notes: as for B1
Regarding B2, the binding result was “binds”.

B3: IgG with feline IgG1a Fc variant S252M, R301L (antibody)
heavy: B1 heavy with R310L
light: B1 light
notes: as for B1
Turning to B3, the binding result is on record as “binds”.

B4: IgG with feline IgG1a Fc variant S252M, L309V (antibody)
heavy: B1 heavy with L318V
light: B1 light
notes: as for B1
Regarding B4, the binding entry is listed as “binds”.

B5: IgG with feline IgG1a Fc variant S252M, T286E (antibody)
heavy: B1 heavy with T295E
light: B1 light
notes: as for B1
For B5, the binding entry is “binds”.

B6: IgG with feline IgG1a Fc variant S428M, L309V (antibody)
heavy: B1 heavy with M261S, L318V, S439M
light: B1 light
notes: as for B1
For B6, the binding result is “binds”.

B7: IgG with feline IgG1a Fc variant S428L, T286D (antibody)
heavy: B1 heavy with M261S, T295D, S439L
light: B1 light
notes: as for B1
On to B7, for which the binding result is “binds”.

B8: IgG with feline IgG1a Fc variant S252M, T286D (antibody)
heavy: B1 heavy with T295D
light: B1 light
notes: as for B1
On to B8, for which the binding result is “binds”.

B9: IgG with feline IgG1a Fc variant S252Y (antibody)
heavy: B1 heavy with M261Y
light: B1 light
notes: as for B1
In the case of B9, the binding result was “binds”.

B10: IgG with feline IgG1a Fc variant S252Y, T286E (antibody)
heavy: B1 heavy with M261Y, T295E
light: B1 light
notes: as for B1
With B10, the binding result was “binds”.

B11: IgG with feline IgG1a Fc variant S252Y, L309D (antibody)
heavy: B1 heavy with M261Y, L318D
light: B1 light
notes: as for B1
Turning to B11, the binding result is given as “binds”.

B12: IgG with feline IgG1a Fc variant S428M, I377L (antibody)
heavy: B1 heavy with M261S, I386L, S439M
light: B1 light
notes: Printed '1377L' read as I377L; IgG1a constant domain with MALA mutations (M234A, L244A as printed); variable domains from WO 2023/97275; also called S428M, 1377L
Take B12: the binding entry was “binds”.

B13: IgG with feline IgG1a Fc variant S428L, L309D (antibody)
heavy: B1 heavy with M261S, L318D, S439L
light: B1 light
notes: as for B1
As for B13, the binding entry is “binds”.

B14: IgG with feline IgG1a Fc variant S252M, R301Y (antibody)
heavy: B1 heavy with R310Y
light: B1 light
notes: as for B1
Regarding B14, the binding result was “binds”.

B15: IgG with feline IgG1a Fc variant S252Y, R392D (antibody)
heavy: B1 heavy with M261Y, R403D
light: B1 light
notes: as for B1
Turning to B15, the binding entry is “binds”.

B16: IgG with feline IgG1a Fc variant S252M, L309D (antibody)
heavy: B1 heavy with L318D
light: B1 light
notes: as for B1
Regarding B16, the binding result is “binds”.

B17: IgG with feline IgG1a Fc variant S252M, R392E (antibody)
heavy: B1 heavy with R403E
light: B1 light
notes: as for B1
Take B17: the binding result was “binds”.

B18: IgG with feline IgG1a Fc variant S428L, R301Y (antibody)
heavy: B1 heavy with M261S, R310Y, S439L
light: B1 light
notes: as for B1
Consider B18, for which the binding result is listed as “binds”.

B19: IgG with feline IgG1a Fc variant S252Y, I377Y (antibody)
heavy: B1 heavy with M261Y, I386Y
light: B1 light
notes: Printed '1377Y' read as I377Y; IgG1a constant domain with MALA mutations (M234A, L244A as printed); variable domains from WO 2023/97275; also called S252Y, 1377Y
For B19, the binding entry is “binds”.

B20: IgG with feline IgG1a Fc variant S428L, R301L (antibody)
heavy: B1 heavy with M261S, R310L, S439L
light: B1 light
notes: as for B1
As to B20, the binding result is reported as “binds”.

B21: IgG with feline IgG1a Fc variant S252Y, R301L (antibody)
heavy: B1 heavy with M261Y, R310L
light: B1 light
notes: as for B1
For B21, the binding entry is “binds”.

B22: IgG with feline IgG1a Fc variant S252M, Q311V (antibody)
heavy: B1 heavy with Q320V
light: B1 light
notes: as for B1
As for B22, the binding result is “binds”.

B23: IgG with feline IgG1a Fc variant S428L, R392E (antibody)
heavy: B1 heavy with M261S, R403E, S439L
light: B1 light
notes: as for B1
B23: the binding result was “binds”.

B24: IgG with feline IgG1a Fc variant S428L, I377L (antibody)
heavy: B1 heavy with M261S, I386L, S439L
light: B1 light
notes: Printed '1377L' read as I377L; IgG1a constant domain with MALA mutations (M234A, L244A as printed); variable domains from WO 2023/97275; also called S428L, 1377L
As for B24, the binding entry is on record as “binds”.

B25: IgG with feline IgG1a Fc variant S428L, I377Y (antibody)
heavy: B1 heavy with M261S, I386Y, S439L
light: B1 light
notes: Printed '1377Y' read as I377Y; IgG1a constant domain with MALA mutations (M234A, L244A as printed); variable domains from WO 2023/97275; also called S428L, 1377Y
Regarding B25, the binding result is “binds”.

B26: IgG with feline IgG1a Fc variant S252Y, R392E (antibody)
heavy: B1 heavy with M261Y, R403E
light: B1 light
notes: as for B1
Turning to B26, the binding result is reported as “binds”.

B27: IgG with feline IgG1a Fc variant S252Y, I377L (antibody)
heavy: B1 heavy with M261Y, I386L
light: B1 light
notes: Printed '1377L' read as I377L; IgG1a constant domain with MALA mutations (M234A, L244A as printed); variable domains from WO 2023/97275; also called S252Y, 1377L
Take B27: the binding result is “binds”.

B28: IgG with feline IgG1a Fc variant S428M, I377Y (antibody)
heavy: B1 heavy with M261S, I386Y, S439M
light: B1 light
notes: Printed '1377Y' read as I377Y; IgG1a constant domain with MALA mutations (M234A, L244A as printed); variable domains from WO 2023/97275; also called S428M, 1377Y
In the case of B28, the binding result was “binds”.

B29: IgG with feline IgG1a Fc variant S252M, R301V (antibody)
heavy: B1 heavy with R310V
light: B1 light
notes: as for B1
Consider B29, for which the binding entry is given as “binds”.

B30: IgG with feline IgG1a Fc variant S252Y, L309V (antibody)
heavy: B1 heavy with M261Y, L318V
light: B1 light
notes: as for B1
With B30, the binding entry is on record as “binds”.

B31: IgG with feline IgG1a Fc variant S252Y, T286D (antibody)
heavy: B1 heavy with M261Y, T295D
light: B1 light
notes: as for B1
For the molecule B31, the binding entry is “binds”.

B32: IgG with feline IgG1a Fc variant S428L (antibody)
heavy: B1 heavy with M261S, S439L
light: B1 light
notes: as for B1
As to B32, the binding result is reported as “binds”.

B33: IgG with feline IgG1a Fc variant S252M, I377Y (antibody)
heavy: B1 heavy with I386Y
light: B1 light
notes: Printed '1377Y' read as I377Y; IgG1a constant domain with MALA mutations (M234A, L244A as printed); variable domains from WO 2023/97275; also called S252M, 1377Y
As to B33, the binding result is “binds”.

B34: IgG with feline IgG1a Fc variant S428M, L309E (antibody)
heavy: B1 heavy with M261S, L318E, S439M
light: B1 light
notes: as for B1
Take B34: the binding entry is recorded as “binds”.

B35: IgG with feline IgG1a Fc variant S252Y, R301V (antibody)
heavy: B1 heavy with M261Y, R310V
light: B1 light
notes: as for B1
On to B35, for which the binding result was “binds”.

B36: IgG with feline IgG1a Fc variant S428L, R392D (antibody)
heavy: B1 heavy with M261S, R403D, S439L
light: B1 light
notes: as for B1
Turning to B36, the binding entry was “binds”.

B37: IgG with feline IgG1a Fc variant S428M, L309D (antibody)
heavy: B1 heavy with M261S, L318D, S439M
light: B1 light
notes: as for B1
Take B37: the binding entry is “binds”.

B38: IgG with feline IgG1a Fc variant S252M, I377L (antibody)
heavy: B1 heavy with I386L
light: B1 light
notes: Printed '1377L' read as I377L; IgG1a constant domain with MALA mutations (M234A, L244A as printed); variable domains from WO 2023/97275; also called S252M, 1377L
For the molecule B38, the binding result is given as “binds”.

B39: IgG with feline IgG1a Fc variant S428L, R301V (antibody)
heavy: B1 heavy with M261S, R310V, S439L
light: B1 light
notes: as for B1
Take B39: the binding entry was “binds”.

B40: IgG with feline IgG1a Fc variant S252M, R392D (antibody)
heavy: B1 heavy with R403D
light: B1 light
notes: as for B1
B40: the binding entry was “binds”.

B41: IgG with feline IgG1a Fc variant S428M (antibody)
heavy: B1 heavy with M261S, S439M
light: B1 light
notes: as for B1
In the case of B41, the binding result is “binds”.
